# According to PubChem BioAssay AID294 (DTP/NCI, 2004):
# The list is a part of this screen's results and no random one: its compounds were picked by chemical class. Other doses and runs of a compound may be missing. T/C is the treated group as % of the vehicle group. Schedule codes are those of the source, taken here to give the interval after Q, in days (D) or hours (H), and the number of doses after X. Some doses were run more than once; the results are listed from low to high. Some values lie below zero, which means that the treated tumours became smaller. Some T/C values are followed by the survivors on the day toxicity was checked; without a count or a note in brackets, all were alive then. Some doses have a count of surviving animals in place of a T/C: the source holds a T/C of zero for them, seemingly a mark for toxic or unscored doses. Counts of survivors are from the toxicity check, whose day is not always given; animals may have died later.
# Test system: MX-1 breast xenograft, nude mice, tumor weight change
# Test: NCI In Vivo Anticancer Drug Screen. Data for tumor model Human Mammary Carcinoma MX-1 Xenograft (subcutaneous) in NU/NU Swiss (nude) mice
# Conditions: T/C endpoint: optimum tumor weight change, schedule: Q04DX003 (ip), higher T/C = larger tumour
# Experimental: The antitumor activity of compounds was measured in mice bearing transplantable tumors. Survival or tumor size were measured and the results are expressed as the measurement made in the treated group (T) divided by the measurement made in the vehicle treated control group (C). The tumor model used in this assay is Human Mammary Carcinoma MX-1 Xenograft (subcutaneous) in NU/NU Swiss (nude) mice
structure (smiles),measurement,setting,value
ClCCN(CCCl)c1ccccc1,T/C,"dose: 6.25 mg/kg/injection, vehicle: saline with Tween-80, evaluated on day 40",69 % of control
same,T/C,"dose: 12.5 mg/kg/injection, vehicle: saline with Tween-80, evaluated on day 37",103 % of control
same,T/C,"dose: 12.5 mg/kg/injection, vehicle: saline with Tween-80, evaluated on day 40",61 and 140 % of control
same,T/C,"dose: 25.0 mg/kg/injection, vehicle: saline with Tween-80, evaluated on day 37",76 % of control
same,T/C,"dose: 25.0 mg/kg/injection, vehicle: saline with Tween-80, evaluated on day 40",55 and 59 % of control
same,T/C,"dose: 50.0 mg/kg/injection, vehicle: saline with Tween-80, evaluated on day 37",-41 % of control
same,T/C,"dose: 50.0 mg/kg/injection, vehicle: saline with Tween-80, evaluated on day 40",44 [4 of 5 alive on day 40] and 48 % of control [4 of 5 alive on day 40]
same,survivor count,"dose: 50.0 mg/kg/injection, vehicle: saline with Tween-80",2 of 5 on day 38
same,T/C,"dose: 100.0 mg/kg/injection, vehicle: saline with Tween-80, evaluated on day 40",-42 % of control [4 of 5 alive on day 40]
same,survivor count,"dose: 100.0 mg/kg/injection, vehicle: saline with Tween-80","0 of 5 on day 40, 2 of 5 on day 38, 2 of 5 on day 40"
same,survivor count,"dose: 200.0 mg/kg/injection, vehicle: saline with Tween-80",0 of 5 on day 38 and 0 of 5 on day 40
CC1=CC(=O)C(N(CCCl)CCCl)=CC1=O,T/C,"dose: 3.13 mg/kg/injection, vehicle: Klucel (hydroxypropylcellulose) (HPC), evaluated on day 34",49 % of control
C[N+](CCCl)(CCCl)Cc1ccc([N+](=O)[O-])cc1,T/C,"dose: 12.5 mg/kg/injection, vehicle: saline, evaluated on day 34",97 % of control
